# Data taken from the supplement of paper PMC8253809.
# For some of these results: This list holds what a sample rich in strong results left over. The entries are a selection whose mix differs from that of the whole data set.
# Columns and labels:
# Assay in all cases: growth inhibition (% activity, log2 RLU normalised to DMSO / staurosporine); higher = more growth inhibition
# Settings in all cases: 33 µM
# DIPGX29 = test system: DIPGX29 (H3.3 K27M diffuse intrinsic pontine glioma line)
# Procedure, shortened: (§1)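 The growth-inhibition value comes from CellTiter-Glo luminescence, log2-transformed, normalised per plate to % activity between solvent and positive control wells, and taken as the median over replicates. Treatment of pHGG cell lines and H9-derived neural stem cells with approved drugs was at a single final concentration of about 33 μM, in triplicate, for 7 days at 37 °C, 5% CO2.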
# DIPGX37 = test system: DIPGX37 (H3.3 K27M diffuse intrinsic pontine glioma line)
# Procedure, shortened: as §1
# DIPGX7 = test system: DIPGX7 (H3.3 K27M diffuse intrinsic pontine glioma line)
# Procedure, shortened: as §1
# DIPGX9 = test system: DIPGX9 (diffuse intrinsic pontine glioma line)
# Procedure, shortened: as §1
# HGGX39 = test system: HGGX39 (paediatric high-grade glioma line)
# Procedure, shortened: as §1
# HGGX6 = test system: HGGX6 (H3.3 G34R paediatric high-grade glioma line)
# Procedure, shortened: as §1
# HNSC = test system: HNSC
# Procedure, shortened: as §1
# SUDIPGIV = test system: SUDIPGIV (diffuse intrinsic pontine glioma line)
# Procedure, shortened: as §1
# SUDIPGVI = test system: SUDIPGVI (diffuse intrinsic pontine glioma line)
# Procedure, shortened: as §1
# SUDIPGXIII = test system: SUDIPGXIII (diffuse intrinsic pontine glioma line)
# Procedure, shortened: as §1
compound,measurement,setting,value
CN1C2CCC1CC(OC(=O)C(O)c1ccccc1)C2 (stereo not given),growth inhibition,DIPGX29,0.526%
same,growth inhibition,DIPGX37,0.508%
same,growth inhibition,DIPGX7,1.7%
same,growth inhibition,DIPGX9,-0.86%
same,growth inhibition,HGGX39,1.69%
same,growth inhibition,HGGX6,2.09%
same,growth inhibition,HNSC,0.106%
same,growth inhibition,SUDIPGIV,1.05%
same,growth inhibition,SUDIPGVI,-0.212%
same,growth inhibition,SUDIPGXIII,0.397%
